Assay results published in patent publication US9458184B2, “Compositions of TLR7 and/or TLR8 agonists conjugated to lipids” (CAYLA, priority 2012, dated 2016).
At least one compound was matched to its structure with a doubt left.

Target: T1, human TLR7 (Homo sapiens, UniProt Q9NYK1)
T1 sequence (Q9NYK1 27-1049): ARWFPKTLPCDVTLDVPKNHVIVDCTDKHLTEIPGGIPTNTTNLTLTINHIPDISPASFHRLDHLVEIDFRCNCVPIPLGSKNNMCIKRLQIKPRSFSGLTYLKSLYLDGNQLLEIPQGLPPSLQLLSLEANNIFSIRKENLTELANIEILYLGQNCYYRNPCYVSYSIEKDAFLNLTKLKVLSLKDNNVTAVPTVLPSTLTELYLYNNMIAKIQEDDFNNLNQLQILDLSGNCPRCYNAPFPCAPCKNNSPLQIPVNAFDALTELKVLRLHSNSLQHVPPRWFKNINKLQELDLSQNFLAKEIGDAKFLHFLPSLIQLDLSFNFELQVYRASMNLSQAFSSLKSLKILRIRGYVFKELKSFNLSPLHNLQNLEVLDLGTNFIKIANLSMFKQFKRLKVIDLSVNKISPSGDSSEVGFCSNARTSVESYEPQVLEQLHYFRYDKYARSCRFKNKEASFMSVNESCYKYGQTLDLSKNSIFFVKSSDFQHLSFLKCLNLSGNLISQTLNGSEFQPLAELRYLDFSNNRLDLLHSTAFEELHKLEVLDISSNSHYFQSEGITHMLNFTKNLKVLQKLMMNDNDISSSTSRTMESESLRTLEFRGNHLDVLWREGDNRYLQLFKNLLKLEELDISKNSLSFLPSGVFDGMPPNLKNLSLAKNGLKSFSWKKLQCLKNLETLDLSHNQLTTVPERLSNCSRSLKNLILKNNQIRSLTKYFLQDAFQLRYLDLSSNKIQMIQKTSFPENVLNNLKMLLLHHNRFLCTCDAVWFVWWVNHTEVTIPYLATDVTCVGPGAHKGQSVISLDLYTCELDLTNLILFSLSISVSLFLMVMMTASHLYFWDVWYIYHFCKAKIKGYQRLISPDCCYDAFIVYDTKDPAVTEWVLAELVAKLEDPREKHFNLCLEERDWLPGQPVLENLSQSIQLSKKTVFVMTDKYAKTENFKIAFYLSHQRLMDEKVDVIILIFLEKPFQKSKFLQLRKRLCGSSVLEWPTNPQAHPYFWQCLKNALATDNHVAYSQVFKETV
Assay: HEK-Blue hTLR7 NF-κB/AP-1 SEAP reporter cell assay
Settings: molecules alone; for TLR7 activity (NF-κB/AP-1-inducible SEAP reporter): 1 or 10 μg/ml, 24 h, HEK-Blue TLR7 cells (FIG. 1A: hTLR7 and mTLR7), specificity checked against other TLR reporter lines

Structure (SMILES)	TLR7 activity (NF-κB/AP-1-inducible SEAP reporter)	concentration inducing maximal TLR7 activation (HEK-Blue TLR7 reporter cells) [g/ml]
CCCCNc1nc(N)c2nc(O)n(Cc3ccc(NC(=O)[C@H](CCC(=O)NCCCNCCCCNCCCN)NCCCP(=O)(OCCC(C)CCCC(C)CCCC(C)CCCC(C)C)OCCC(C)CCCC(C)CCCC(C)CCCC(C)C)cc3)c2n1 (stereo partly drawn) [CL529, bis(3,7,11,15-tetramethylhexadecyl)-(S)-21-amino-5-(4-((6-amino-2-(butylamino)-8-hydroxy-9H-purin-9-yl)methyl)phenylcarbamoyl)-8-oxo-4,9,13,18-tetraazahenicosyl phosphonate]	strong and specific TLR7 activity	–
CCOCc1nc2c(N)nc3ccccc3c2n1CC(C)(C)O [Molecule R848, Resiquimod, reference compound]	–	1
CCCCCCCCCCCCCCCCOP(=O)(CCCN[C@@H](CCC(=O)NCCCNCCCCNCCCN)C(=O)Nc1ccc(Cn2c(O)nc3c(N)nc(NCCCC)nc32)cc1)OCCCCCCCCCCCCCCCC [CL528, (S)-dihexadecyl 21-amino-5-(4-((6-amino-2-(butylamino)-8-hydroxy-9H-purin-9-yl)methyl)phenylcarbamoyl)-8-oxo-4,9,13,18-tetraazahenicosylphosphonate]	strong and specific TLR7 activity	–
